# This is one part of the list.
# What was measured:
# Experiment in all cases: glycan array binding signal (z-score within array); higher = stronger binding
# Conditions in all cases: glycan notation: IUPAC condensed, linker removed
# [1] = target: Fuc(a1-2)[GalNAc(b1-3)]Gal
# In short: (§1)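 Glycan array binding is given as a within-array Z-score, which can be read as non-binding when negative. The arrays, 3228 of them, came from the Consortium for Functional Glycomics database and were retained only where the protein sequence was available. Z-scores were averaged across arrays of the same protein sequence at different concentrations or buffers and across linkers.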
# Fuc(a1-3)GlcNAc = target: Fuc(a1-3)GlcNAc
# In short: as §1
# [2] = target: Fuc(a1-3)[Gal(b1-4)]Glc6S
# In short: as §1
# [3] = target: Fuc(a1-3)[Gal(b1-4)]GlcNAc
# In short: as §1
# [4] = target: Fuc(a1-3)[Gal(b1-4)]GlcNAc(b1-2)Man
# In short: as §1
# [5] = target: Fuc(a1-3)[Gal(b1-4)]GlcNAc(b1-2)Man(a1-3)[Fuc(a1-3)[Gal(b1-4)]GlcNAc(b1-2)Man(a1-6)]Man(b1-4)GlcNAc(b1-4)GlcNAc
# In short: as §1
# [6] = target: Fuc(a1-3)[Gal(b1-4)]GlcNAc(b1-2)Man(a1-3)[Fuc(a1-3)[Gal(b1-4)]GlcNAc(b1-2)Man(a1-6)]Man(b1-4)GlcNAc(b1-4)[Fuc(a1-6)]GlcNAc
# In short: as §1
# [7] = target: Fuc(a1-3)[Gal(b1-4)]GlcNAc(b1-3)Gal(b1-3)[Fuc(a1-4)]GlcNAc
# In short: as §1
# [8] = target: Fuc(a1-3)[Gal(b1-4)]GlcNAc(b1-3)Gal(b1-4)[Fuc(a1-3)]GlcNAc
# In short: as §1
# [9] = target: Fuc(a1-3)[Gal(b1-4)]GlcNAc(b1-3)Gal(b1-4)[Fuc(a1-3)]GlcNAc(b1-3)Gal(b1-4)[Fuc(a1-3)]GlcNAc
# In short: as §1
# [10] = target: Fuc(a1-3)[Gal(b1-4)]GlcNAc(b1-3)GalNAc
# In short: as §1
# [11] = target: Fuc(a1-3)[Gal(b1-4)]GlcNAc(b1-6)GalNAc
# In short: as §1
# [12] = target: Fuc(a1-3)[Gal(b1-4)]GlcNAc(b1-6)[Gal(b1-3)GlcNAc(b1-3)]Gal(b1-4)Glc
# In short: as §1
# [13] = target: Fuc(a1-3)[Gal(b1-4)]GlcNAc6S
# In short: as §1
# [14] = target: Fuc(a1-3)[Gal3S(b1-4)]Glc
# In short: as §1
# [15] = target: Fuc(a1-3)[Gal3S(b1-4)]GlcNAc
# In short: as §1
# [16] = target: Fuc(a1-3)[Gal3S(b1-4)]GlcNAc6S
# In short: as §1
# [17] = target: Fuc(a1-3)[GalNAc(b1-4)]GlcNAc
# In short: as §1
# [18] = target: Fuc(a1-3)[GalNAc(b1-4)]GlcNAc6S
# In short: as §1
# Fuc(a1-4)GlcNAc = target: Fuc(a1-4)GlcNAc
# In short: as §1
# Fuc(b1-3)GlcNAc = target: Fuc(b1-3)GlcNAc
# In short: as §1
# Gal(a1-2)Gal = target: Gal(a1-2)Gal
# In short: as §1
# Gal(a1-3)Gal = target: Gal(a1-3)Gal
# In short: as §1
# Gal(a1-3)Gal(b1-3)GlcNAc = target: Gal(a1-3)Gal(b1-3)GlcNAc
# In short: as §1
# [19] = target: Gal(a1-3)Gal(b1-3)GlcNAc(b1-2)Man
# In short: as §1
# [20] = target: Gal(a1-3)Gal(b1-3)GlcNAc(b1-2)Man(a1-3)[Gal(a1-3)Gal(b1-3)GlcNAc(b1-2)Man(a1-6)]Man(b1-4)GlcNAc(b1-4)GlcNAc
# In short: as §1
# [21] = target: Gal(a1-3)Gal(b1-3)GlcNAc(b1-3)GalNAc
# In short: as §1
# [22] = target: Gal(a1-3)Gal(b1-3)GlcNAc(b1-6)GalNAc
# In short: as §1
# [23] = target: Gal(a1-3)Gal(b1-3)[Fuc(a1-4)]GlcNAc(b1-2)Man(a1-3)[Gal(a1-3)Gal(b1-3)[Fuc(a1-4)]GlcNAc(b1-2)Man(a1-6)]Man(b1-4)GlcNAc(b1-4)GlcNAc
# In short: as §1
# Gal(a1-3)Gal(b1-4)Glc = target: Gal(a1-3)Gal(b1-4)Glc
# In short: as §1
binder,measurement,setting,value
"AT1G80310(18) (Arabidopsis thaliana), Q0WP36 (protein) METTTTPLLPGDRSRCGWLRRRLRLKNPLSSELSGAVGDLGTFIPIVLTLTLVSNLDLSTTLIFTGFYNIATGLLFDIPMPVQPMKSIAAVAVSESPHLTPSQIAAAGASTAATLLLLGATGAMSFLYNIIPLPVVRGVQLSQGLQFAFTAIKYVRFNYDTATLKPSSSPRIWLGLDGLILALAALLFIILSTGSGNDREAEDGDLAETSSNESQSRRRRLRLLSSIPSALIVFALGLVLCFIRDPSIFKDLKFGPSKFHILRISWDDWKIGFLRAAIPQIPLSVLNSVIAVCKLSNDLFDKELSATTVSISVGVMNLIGCWFGAMPVCHGAGGLAGQYRFGARSGLSVIFLGIGKLIVGLVFGNSFVRILSQFPIGILGVLLLFAGIELAMASKDMNSKEDSFIMLVCAAVSMTGSSAALGFGCGVVLYLLLKLRTLDCSSVTLFSRSSDESQVDSEAAPRDV",glycan array binding signal (z-score),[1],-0.584
same,glycan array binding signal (z-score),Fuc(a1-3)GlcNAc,-0.279
same,glycan array binding signal (z-score),[2],1.38
same,glycan array binding signal (z-score),[3],-0.719
same,glycan array binding signal (z-score),[4],-0.042
same,glycan array binding signal (z-score),[5],1.16
same,glycan array binding signal (z-score),[6],-0.402
same,glycan array binding signal (z-score),[7],1.12
same,glycan array binding signal (z-score),[8],0.576
same,glycan array binding signal (z-score),[9],0.861
same,glycan array binding signal (z-score),[10],1.35
same,glycan array binding signal (z-score),[11],0.051
same,glycan array binding signal (z-score),[12],0.22
same,glycan array binding signal (z-score),[13],-0.865
same,glycan array binding signal (z-score),[14],0.156
same,glycan array binding signal (z-score),[15],-0.281
same,glycan array binding signal (z-score),[16],0.546
same,glycan array binding signal (z-score),[17],-0.082
same,glycan array binding signal (z-score),[18],-0.885
same,glycan array binding signal (z-score),Fuc(a1-4)GlcNAc,-0.365
same,glycan array binding signal (z-score),Fuc(b1-3)GlcNAc,-0.095
same,glycan array binding signal (z-score),Gal(a1-2)Gal,0.558
same,glycan array binding signal (z-score),Gal(a1-3)Gal,3.63
same,glycan array binding signal (z-score),Gal(a1-3)Gal(b1-3)GlcNAc,3.82
same,glycan array binding signal (z-score),[19],-0.812
same,glycan array binding signal (z-score),[20],0.244
same,glycan array binding signal (z-score),[21],-0.4
same,glycan array binding signal (z-score),[22],-0.263
same,glycan array binding signal (z-score),[23],-0.515
same,glycan array binding signal (z-score),Gal(a1-3)Gal(b1-4)Glc,-0.294

# 2 records picked at random from the list so far, as already listed:
binder,measurement,setting,value
"AT1G80310(18) (Arabidopsis thaliana), Q0WP36 (protein) METTTTPLLPGDRSRCGWLRRRLRLKNPLSSELSGAVGDLGTFIPIVLTLTLVSNLDLSTTLIFTGFYNIATGLLFDIPMPVQPMKSIAAVAVSESPHLTPSQIAAAGASTAATLLLLGATGAMSFLYNIIPLPVVRGVQLSQGLQFAFTAIKYVRFNYDTATLKPSSSPRIWLGLDGLILALAALLFIILSTGSGNDREAEDGDLAETSSNESQSRRRRLRLLSSIPSALIVFALGLVLCFIRDPSIFKDLKFGPSKFHILRISWDDWKIGFLRAAIPQIPLSVLNSVIAVCKLSNDLFDKELSATTVSISVGVMNLIGCWFGAMPVCHGAGGLAGQYRFGARSGLSVIFLGIGKLIVGLVFGNSFVRILSQFPIGILGVLLLFAGIELAMASKDMNSKEDSFIMLVCAAVSMTGSSAALGFGCGVVLYLLLKLRTLDCSSVTLFSRSSDESQVDSEAAPRDV",glycan array binding signal (z-score),Fuc(b1-3)GlcNAc,-0.095
same,glycan array binding signal (z-score),Gal(a1-2)Gal,0.558
